Experimental data reported in patent US5565425A, “Viral infection and proliferation inhibitors” (Snow Brand Milk Products Co., Ltd, priority 1993, dated 1996).
Part of at least one peptide drawing is inferred or uncertain, most often the ends. Bridge positions count the residues as written; N and C are the ends. Peptide text beside a SMILES is read from it.

Tested on: Human CMV (Tanaka strain)
Assay: Inhibitory activity against human CMV infection and proliferation in HELF cells (fluorescence staining)
Type: cell-based, Human cytomegalo virus
Conditions: 24 hrs., concentration not given
Protocol: (Method) LF derived peptide was dissolved in 2% serum added MEM medium to give five mg/ml solution, filtered and sterilized to make a stock solution. The stock solution was diluted with 2% serum added MEM medium on use. Samples containing human embryo lung fibroblast cells (HELF cells) were suspended in 2% serum added MEM medium and incubated for 10 minutes. The cells were collected by centrifugation, washed twice with 2% serum added MEM medium and suspended in 2% serum added MEM medium. Human cytomegalo virus [Human CMV (Tanaka strain)] was added, incubated for 24 hrs., fluorescence stained with human CMV positive serum and the adsorption rate of human CMV to the cells was determined.
The results are judged from the numbers of fluorescent stained cells per one cover slip.

Compound | Inhibitory rate of human CMV infection
CC[C@H](C)[C@@H]1NC(=O)[C@H](CO)NC(=O)[C@@H]2CCCN2C(=O)[C@H](C)NC(=O)CNC(=O)[C@H](CC(C)C)NC(=O)[C@H](CCCCN)NC(=O)[C@H](CCCCN)NC(=O)[C@H](CCSC)NC(=O)[C@H](CCCNC(=N)N)NC(=O)[C@H](Cc2c[nH]c3ccccc23)NC(=O)[C@H](CCC(N)=O)NC(=O)[C@H](Cc2c[nH]c3ccccc23)NC(=O)[C@H](CCCNC(=N)N)NC(=O)[C@H](CCCNC(=N)N)NC(=O)[C@@H](N)CSSC[C@@H](C(=O)O)NC(=O)[C@H]([C@@H](C)O)NC1=O [Bovine LF (19-36), Cys-Arg-Arg-Trp-Gln-Trp-Arg-Met-Lys-Lys-Leu-Gly-Ala-Pro-Ser-Ile-Thr-Cys] (H-CRRWQWRMKKLGAPSITC-OH; disulfide 1-18) | 93.9%
CSCC[C@@H]1NC(=O)[C@H](CC(N)=O)NC(=O)[C@H](CCCNC(=N)N)NC(=O)[C@H](CCC(N)=O)NC(=O)[C@H](Cc2c[nH]c3ccccc23)NC(=O)[C@H](CCC(N)=O)NC(=O)[C@H](Cc2ccccc2)NC(=O)[C@@H](N)CSSC[C@@H](C(=O)O)NC(=O)[C@H](CO)NC(=O)[C@H](C(C)C)NC(=O)[C@@H]2CCCN2C(=O)[C@@H]2CCCN2C(=O)CNC(=O)[C@H](CCCNC(=N)N)NC(=O)[C@H](C(C)C)NC(=O)[C@H](CCCCN)NC(=O)[C@H](CCCNC(=N)N)NC1=O [Human LF (20-37), Cys-Phe-Gln-Trp-Gln-Arg-Asn-Met-Arg-Lys-Val-Arg-Gly-Pro-Pro-Val-Ser-Cys] (H-CFQWQRNMRKVRGPPVSC-OH; disulfide 1-18) | 94.0%
